{
  "source": "patent US20240343760A1",
  "about": "“PEPTIDES FOR CELL-TYPE SPECIFIC TARGETING OF THE RETINA” (Oregon State University, priority 2021, published 2024)",
  "target": "streptavidin (UniProt P22629)",
  "test": "phage display biopanning of the Ph.D.-7 M13 library against streptavidin, three rounds, Sanger sequencing of clones",
  "note": "Results are given in words; binding and its absence hold for the method and conditions named. Some results given as binding are weak or reduced against the parent protein; the word gives no strength.",
  "data": [
    {"binder": "NLLSHPQ", "note": "[NLLSHPQ (SEQ ID No. 51), heptamer peptide displayed on M13 bacteriophage (Ph.D.-7 library clone)]", "values": [
      {"measurement": "binding", "value": "binds"}
    ]}
  ]
}
